The target of this assay is Clostridioides difficile translation initiation factor 1 (Clostridioides difficile) (UniProt Q18CI2). The assay can be described thus: NMR 15N relaxation.

Amino acid sequences for entries named in this document (tags omitted). A change or cut given only in a name is not applied to a line headed by its entry.
UniProt Q18CI2, whole entry, looked up, stated change not applied: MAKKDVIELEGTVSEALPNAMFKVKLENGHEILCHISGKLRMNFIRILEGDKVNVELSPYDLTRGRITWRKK

No constants are given. Whether binding was seen depends on the method and setting.

Turning to “Clostridioides difficile translation initiation factor 1 (from UniProt Q18CI2 1-72)”, the binding result is given as “no binding”.

The record behind these values is article doi:10.1101/2023.06.30.547268.
